Record: PubChem BioAssay AID743458 (Peter MacCallum Cancer Centre, 2014)
Shown is an unselected part of about 1,800 deposited reagents. Of all reagents, 732 (41%) got an active call. 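Calls are per siRNA reagent; a gene was deemed confirmed only if most of its four siRNAs scored.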 Entries without a mark were called inactive. Reagents against one gene are numbered here. No sequences are given here.

Screen: 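Find knock-downs that make vorinostat-resistant colon cancer cells sensitive again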 (follow-up of hits)
Cell system: human HCT116-VR colon cancer cells made resistant to vorinostat
Reagents: single siRNA or pool against human genes, 25 nM per single siRNA
Time to read-out: about 72 h after transfection, including 24 h of drug
Challenge: vorinostat, 2.5 µM final, for 24 h
Measurement: 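Cell viability by fluorescence and apoptosis by caspase 3/7 luminescence under vorinostat, background-corrected, averaged across two plate copies and given as fold change versus mock transfection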
Scale: viability relative to mock: higher = more living cells than mock; caspase activity relative to mock: higher = more apoptosis than mock
Call rule: 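An siRNA counts as active if classed as reduced viability or as caspase activation, otherwise inactive; a hit class needed wells that remained healthy in the absence of drug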

no.	gene	reagent	viability relative to mock	caspase activity relative to mock	viability hit class	caspase hit class
1	ADCY7	1	0.98	1.73	no change	no change
2	ADCY7	2	0.6 (active)	3.32	no change	caspase activation
3	ADCY7	3	0.18	1.54	no change	no change
4	ADCY7	4	0.77	2.54	no change	no change
5	SCRT2	1	0.84	0.92	no change	no change
6	SCRT2	2	0.31 (active)	3.41	reduced viability	caspase activation
7	SCRT2	3	0.56 (active)	2.57	reduced viability	no change
8	SCRT2	4	0.9 (active)	4.01	no change	caspase activation
9	GUCY2D	1	1.02	1.44	no change	no change
10	GUCY2D	2	0.8	1.52	no change	no change
11	GUCY2D	3	0.47 (active)	2.51	reduced viability	no change
12	GUCY2D	4	0.2 (active)	2.51	reduced viability	no change
13	SOWAHB	1	0.74	1.23	no change	no change
14	SOWAHB	2	0.82	0.63	no change	no change
15	SOWAHB	3	1.04	1.04	no change	no change
16	SOWAHB	4	0.62 (active)	4.36	no change	caspase activation
17	QTRT1	1	0.53 (active)	3.52	reduced viability	caspase activation
18	QTRT1	2	0.91	1.7	no change	no change
19	QTRT1	3	0.82	1.75	no change	no change
20	QTRT1	4	0.94	1.31	no change	no change
21	ALMS1	1	0.31 (active)	1.15	reduced viability	no change
22	ALMS1	2	1	1.07	no change	no change
23	ALMS1	3	0.61	1.82	no change	no change
24	ALMS1	4	0.8	1.88	no change	no change
25	MROH5	1	0.64	0.55	no change	no change
26	MROH5	2	0.86	1.75	no change	no change
27	MROH5	3	0.76 (active)	4.28	no change	caspase activation
28	MROH5	4	0.28 (active)	2.5	reduced viability	no change
29	SMG1	1	0.62	2.42	no change	no change
30	SMG1	2	0.43 (active)	1.81	reduced viability	no change
31	SMG1	3	0.41	5.32	no change	no change
32	SMG1	4	0.77 (active)	3.67	no change	caspase activation
33	RNF40	1	0.94	1.57	no change	no change
34	RNF40	2	0.79	2.22	no change	no change
35	RNF40	3	0.97 (active)	2.75	no change	caspase activation
36	RNF40	4	0.96	1.38	no change	no change
37	ZNF547	1	1.07	1.38	no change	no change
38	ZNF547	2	1.02	2.05	no change	no change
39	ZNF547	3	0.81	1.04	no change	no change
40	ZNF547	4	0.9	2.17	no change	no change
41	SAMD8	1	0.85 (active)	3.58	no change	caspase activation
42	SAMD8	2	0.22 (active)	2.79	reduced viability	caspase activation
43	SAMD8	3	0.94	2.07	no change	no change
44	SAMD8	4	0.79	1.99	no change	no change
45	LAD1	1	0.4 (active)	5.43	reduced viability	caspase activation
46	LAD1	2	0.36 (active)	3.85	reduced viability	caspase activation
47	LAD1	3	0.78 (active)	2.83	no change	caspase activation
48	LAD1	4	0.94	1.82	no change	no change
49	TOX4	1	0.84 (active)	3.99	no change	caspase activation
50	TOX4	2	1.01	1.24	no change	no change
51	TOX4	3	0.83 (active)	3.36	no change	caspase activation
52	TOX4	4	0.96	2.38	no change	no change
53	GPX4	1	0.6 (active)	5.16	no change	caspase activation
54	GPX4	2	0.96	0.98	no change	no change
55	GPX4	3	0.96	0.9	no change	no change
56	GPX4	4	0.88 (active)	3.52	no change	caspase activation
57	PSMD13	1	0.42 (active)	3.17	reduced viability	caspase activation
58	PSMD13	2	0.72 (active)	6.25	no change	caspase activation
59	PSMD13	3	0.2	4.07	no change	no change
60	PSMD13	4	0.74 (active)	4.77	no change	caspase activation
61	ABHD16B	1	0.48 (active)	5.25	reduced viability	caspase activation
62	ABHD16B	2	0.76	1.85	no change	no change
63	ABHD16B	3	0.85	1.06	no change	no change
64	ABHD16B	4	0.74	0.91	no change	no change
65	PRICKLE2	1	0.94 (active)	2.66	no change	caspase activation
66	PRICKLE2	2	1.02	1.01	no change	no change
67	PRICKLE2	3	0.85	1.02	no change	no change
68	PRICKLE2	4	0.92	1.11	no change	no change
69	SMARCD2	1	0.85	0.91	no change	no change
70	SMARCD2	2	0.86	0.99	no change	no change
71	SMARCD2	3	0.81	1.64	no change	no change
72	SMARCD2	4	0.8	0.88	no change	no change
73	FMR1	1	0.52 (active)	4.13	reduced viability	caspase activation
74	FMR1	2	0.82	1.96	no change	no change
75	FMR1	3	0.83	1.88	no change	no change
76	FMR1	4	0.75	2.13	no change	no change

Targets listed so far whose gene name begins with F or f:
gene	reagent	viability relative to mock	caspase activity relative to mock	viability hit class	caspase hit class
FMR1	1	0.52 (active)	4.13	reduced viability	caspase activation
FMR1	2	0.82	1.96	no change	no change
FMR1	3	0.83	1.88	no change	no change
FMR1	4	0.75	2.13	no change	no change
